Laboratory results from PubChem BioAssay AID1117319 (Southern Research Institute, 2015).
Out of some 260,000 compounds screened, about 1,500 (0.58%) were called active. The shares of active, inactive and inconclusive entries below differ from those in the screen.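 Rule for the calls: active = inhibition above a set limit at one or more doses, reproduced on every date tested; inconclusive = results disagree between test dates, or hit never tested in dose response; inactive = the rest.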

Protein sequences, listed by entry. Tags and fused reporters are not part of them. Lines headed by an entry give the natural chain unless they say otherwise; changes in a name come on top.
UniProt P69720: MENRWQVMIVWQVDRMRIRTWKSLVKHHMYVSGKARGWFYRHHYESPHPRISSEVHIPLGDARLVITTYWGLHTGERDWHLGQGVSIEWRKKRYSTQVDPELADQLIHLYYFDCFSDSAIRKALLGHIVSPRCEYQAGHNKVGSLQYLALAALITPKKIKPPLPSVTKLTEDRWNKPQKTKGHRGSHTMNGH
UniProt P69721: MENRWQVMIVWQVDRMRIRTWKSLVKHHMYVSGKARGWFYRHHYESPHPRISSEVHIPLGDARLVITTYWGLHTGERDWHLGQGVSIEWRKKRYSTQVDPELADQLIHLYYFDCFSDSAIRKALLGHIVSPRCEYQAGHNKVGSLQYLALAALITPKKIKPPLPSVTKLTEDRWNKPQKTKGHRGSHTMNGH
UniProt P69722: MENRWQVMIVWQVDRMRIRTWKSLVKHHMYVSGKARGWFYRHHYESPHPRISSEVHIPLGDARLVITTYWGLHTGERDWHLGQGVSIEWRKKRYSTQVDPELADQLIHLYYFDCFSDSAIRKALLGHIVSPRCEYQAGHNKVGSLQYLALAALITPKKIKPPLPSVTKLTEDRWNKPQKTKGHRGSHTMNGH
UniProt P69723: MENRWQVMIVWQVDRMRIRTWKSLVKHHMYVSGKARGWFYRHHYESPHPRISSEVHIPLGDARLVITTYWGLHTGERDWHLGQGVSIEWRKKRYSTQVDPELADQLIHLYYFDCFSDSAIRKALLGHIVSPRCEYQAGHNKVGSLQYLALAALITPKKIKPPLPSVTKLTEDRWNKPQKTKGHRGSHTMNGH
UniProt Q9HC16: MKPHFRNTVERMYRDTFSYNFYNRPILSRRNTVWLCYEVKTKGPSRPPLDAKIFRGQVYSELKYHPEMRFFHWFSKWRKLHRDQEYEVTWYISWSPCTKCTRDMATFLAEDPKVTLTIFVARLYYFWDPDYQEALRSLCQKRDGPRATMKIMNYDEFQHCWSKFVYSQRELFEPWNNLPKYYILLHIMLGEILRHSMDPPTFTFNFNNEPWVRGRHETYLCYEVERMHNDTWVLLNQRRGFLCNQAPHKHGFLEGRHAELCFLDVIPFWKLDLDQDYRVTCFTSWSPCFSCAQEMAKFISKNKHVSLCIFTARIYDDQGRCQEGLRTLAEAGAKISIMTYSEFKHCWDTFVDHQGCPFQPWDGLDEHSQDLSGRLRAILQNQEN

Target: Virion infectivity factor (Human immunodeficiency virus type 1 group M subtype B (isolate BH10)) + Virion infectivity factor (Human immunodeficiency virus type 1 group M subtype B (isolate BRU/LAI)) + Virion infectivity factor (Human immunodeficiency virus type 1 group M subtype B (isolate PCV12)) + Virion infectivity factor (Human immunodeficiency virus type 1 group M subtype B (isolate HXB2)) + DNA dC->dU-editing enzyme APOBEC-3G (Homo sapiens) (UniProt P69720+P69721+P69722+P69723+Q9HC16)
Assay: inhibitors of Vif binding to APOBEC3G peptide, primary screen, biochemical, TR-FRET, GST-Vif 1-94, biotin-A3G peptide, dose response retest (AID 1117319);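 note: Vif residues 1-94 fused to GST binding biotinylated APOBEC3G peptide 110-148; 0% = full assay without inhibitor and 100% = GST in place of GST-Vif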
Details: hits give high values

Row | Structure (SMILES) | inhibition
1 | Cc1ccc(C)c(-n2c3nc(=O)[nH]c(=O)c-3cc3cc([N+](=O)[O-])ccc32)c1 | inconclusive: 35%
2 | CC1Cc2ccccc2N1C(=O)CCS(=O)(=O)c1cccs1 (stereo unspecified) | inconclusive: 31%
3 | O=C(/C=C/c1ccc(-c2cccc([N+](=O)[O-])c2)o1)N1CCOCC1 | inconclusive: 37.3%
4 | CCNC(=O)c1c(NC(=O)c2cc(-c3cc(C)ccc3O)n[nH]2)sc2c1CCCC2 | inconclusive: 39.7%
5 | Cc1ccc(CN2CCN(Cc3nc4ccccc4nc3C)CC2CCO)cc1 (stereo unspecified) | inconclusive: 35.4%
6 | COc1ccc(O)c(/C=N/n2c(-c3ccco3)csc2=Nc2cccnc2)c1 | inactive: 6.77%
7 | CCn1c(=O)cc(OCC(=O)Nc2cccnc2)c2ccccc21 | inconclusive: 57.2%
8 | O=C(Nc1ccc(Cl)c(Cl)c1)c1ccc(Cn2c(=O)[nH]c3ccsc3c2=O)cc1 | inconclusive: 35.8%
9 | CCOc1ccccc1C1C(C#N)=C(N)Oc2cc(C)n(C)c(=O)c21 (stereo unspecified) | inconclusive: 38.3%
10 | S=C1SCN(Cc2ccco2)CN1Cc1ccco1 | inconclusive: 44.8%
11 | COc1ccc(C2C(C#N)=C(N)Oc3c2ccc2cccnc32)cc1OC (stereo unspecified) | inactive: 18.2%
12 | Cc1nc2ccc(S(=O)(=O)Nc3cc(-c4nc5cccnc5s4)ccc3C)cc2s1 | inconclusive: 34.1%
13 | CCCNC(=O)c1c(N)n(-c2cc(OC)cc(OC)c2)c2nc3ccccc3nc12 | inconclusive: 47%
14 | O=C1CC(c2ccco2)CC(O)=C1C=NCCN1CCN(C2CC(=O)N(c3ccccc3)C2=O)CC1 (stereo unspecified) | inconclusive: 36.8%
15 | CCOC(=O)N1CCN(C(=O)COc2ccc(S(=O)(=O)NC(C)C)cc2)CC1 | inactive: -4.61%
16 | COc1ccc(S(=O)(=O)N2CCOC2CNC(=O)C(=O)NCc2cccnc2)cc1C (stereo unspecified) | inconclusive: 61.8%
17 | O=C(/C=C\Nc1ccccn1)c1ccccc1 | inactive: 1.92%
18 | COc1ccc(C(=O)Nc2nc(CC(=O)NCCc3cccc(OC)c3)cs2)cc1 | inactive: 0.4%
19 | CC(=O)c1cc(CN2CCN(CCc3ccccc3)C(CCO)C2)cs1 (stereo unspecified) | inconclusive: 44.7%
20 | COc1ccc(NC(=O)C(NC(C)=O)C(=O)NCc2ccccc2)cc1 (stereo unspecified) | inactive: 2.8%
21 | Cc1ccc(NC(=O)c2cc(-c3ccco3)nc3ccccc23)cc1S(=O)(=O)N1CCOCC1 | inactive: 32.6%
22 | Cc1cc(C)nc(NC(=O)c2ccc([N+](=O)[O-])o2)n1 | inconclusive: 60.7%

Row | Structure (SMILES) | inhibition
23 | CC(C)OP(=O)(c1ccc(N(C)C)cc1)C(O)c1ccc(N(C)C)cc1 (stereo unspecified) | inactive: -8.7%
24 | CC(C)(C)C(=O)Nc1sc(-c2ccccc2)cc1C(=O)O | inconclusive: 34.7%
25 | CC(NC(=O)c1ccccc1Br)c1nnc(SCc2ccc([N+](=O)[O-])cc2)n1C (stereo unspecified) | inconclusive: 39.3%
26 | O=C1/C(=C/Nc2ccc3c(c2)OCO3)CCc2ccccc21 | inactive: 27.2%
27 | COc1ccc(N2C(=O)CC(N3CCN(c4ccc(S(=O)(=O)N5CCCC5)cc4)CC3)C2=O)cc1 (stereo unspecified) | inconclusive: 57%
28 | S=C(NCCc1ccccc1)N1CCN(Cc2ccccc2)CC1 | inconclusive: 52.6%
29 | Cc1nn(C)c(Cl)c1C(=O)NCC(=O)NCc1ccccc1 | inconclusive: 58.2%
30 | Cc1ccc(C(=O)O)cc1NC(=O)Nc1ccc2c(c1)OCO2 | inconclusive: 39.3%
31 | CC/C=C\[C@H](O)[C@H](O)C1=C(C)C(=O)[C@]2(O1)C(=O)N[C@@](OC)(C(=O)c1ccccc1)C2O (stereo partly specified) | inconclusive: 62.4%
32 | COc1ccc(N2C(=O)c3ccccc3NC2c2ccccc2O)cc1 (stereo unspecified) | inactive: -3.39%
33 | NC(=O)C1CCN(C(=O)Cc2ccc([N+](=O)[O-])cc2)CC1 | inconclusive: 45.3%
34 | COc1cc(C2c3c(oc4ccccc4c3=O)C(=O)N2c2nccs2)ccc1O (stereo unspecified) | inconclusive: 52.2%
35 | CCc1cn([C@H]2C[C@H](O)[C@@H](CO)O2)c(=O)[nH]c1=O | inconclusive: 48.2%
36 | CCN(CCO)c1ccc(N=Nc2cc(C)[nH]n2)cc1 | inconclusive: 48%
37 | CC1(C)Cc2c(C#N)c(NCc3ccco3)nc(-c3ccco3)c2CO1 | inconclusive: 59.8%
38 | CCOC(=O)C1CCN(c2c(NCCCN(C)C3CCCCC3)c(=O)c2=O)CC1 | inconclusive: 33.1%
39 | Cc1cnc(Nc2nc3ccccc3o2)nc1C(=O)Nc1cccc(C(F)(F)F)c1 | inconclusive: 35%
40 | Cc1ccc2cc(NC(=O)c3cccc(F)c3)ccc2n1 | inconclusive: 64.2%
41 | CC(=O)N1CCc2cc(S(=O)(=O)NC(C(=O)Nc3ccc4c(c3)OCCO4)C(C)C)ccc21 (stereo unspecified) | inconclusive: 60.3%
42 | CCOC(=O)CN(C(=O)CN1CCOCC1)c1ccc(Br)cc1 | inconclusive: 49.1%
43 | COc1ccccc1-c1c(C)nn2c(N3CCC(C)CC3)cc(C)nc12 | inconclusive: 50%
44 | Cc1c(C(=O)O)oc2ccc(S(=O)(=O)NCc3ccccc3)cc12 | inconclusive: 35.3%

Row | Structure (SMILES) | inhibition
45 | O=S(Cc1ccccc1)CC(O)(c1ccccc1)c1ccccc1 (stereo unspecified) | inconclusive: 44.2%
46 | CCC(=O)Nc1nonc1-c1nc2ccccc2n1N(C(=O)CC)C(=O)CC | inconclusive: 46.6%
47 | C/C(=C/CCC(C)C1CCC2(C)C3CCC4C(C)(C)C(=O)CCC4(C)C3=CCC12C)C(=O)O (stereo unspecified) | inconclusive: 48.2%
48 | CN(CCc1ccccn1)C(=S)Nc1ccc(Cl)c(Cl)c1 | inconclusive: 35.3%
49 | CCCOc1ccc(-c2nn(-c3ccccc3)cc2/C=C2\SC(=S)N(C3CCS(=O)(=O)C3)C2=O)cc1 (stereo unspecified) | inconclusive: 42.5%
50 | COc1cc(C(=O)NC(=S)NCc2ccco2)cc(OC)c1OC | inactive: 5.31%
51 | CN(C(=O)CSc1nc(N)nn1-c1ccccc1)c1ccccc1 | inconclusive: 58.9%
52 | O=C(CSCc1cccc(CSCC(=O)Nc2ccc3ccccc3c2)n1)Nc1ccc2ccccc2c1 | inconclusive: 33.3%
53 | Cn1nnnc1SCC(=O)c1ccc2c(c1)OCCO2 | inconclusive: 34.2%
54 | Cn1c(SCC(=O)NC(C)(C)C)nnc1-c1ccc(C(C)(C)C)cc1 | inconclusive: 35%
55 | C=CCn1c(N)c(C(=O)Nc2ccccc2OC)sc1=S | inconclusive: 33%
56 | Cc1cc(C)c(S(=O)(=O)N2CCCCC2)c(C)c1N(C)S(=O)(=O)c1ccccc1 | inactive: -2.38%
57 | COc1ccc(C(C)=O)cc1COC(=O)C(CO)NS(=O)(=O)c1ccc(Br)cc1 (stereo unspecified) | inconclusive: 42.7%
58 | O=C(N1CCOCC1)N(CCN1CCOCC1)Cc1cccc2ccccc12 | inconclusive: 35.8%
59 | Cc1ccc(CN2CCN(CCC(C)C)C(CCO)C2)s1 (stereo unspecified) | inconclusive: 43.8%
60 | COc1ccc(N2CCN(C(=O)COC(=O)c3c(-c4ccccc4)noc3C)CC2)cc1 | inactive: -5.58%
61 | COc1cc(C2/C(=C(/O)c3ccc(F)cc3)C(=O)C(=O)N2CCCC(=O)O)ccc1O (stereo unspecified) | inconclusive: 37.6%
62 | O=C(CCN1C(=O)c2ccccc2C1=O)CN1CCOCC1 | inactive: -9.57%
63 | Nc1nnc(-c2ccccc2)s1 | inconclusive: 48.7%
64 | CN(/N=C\c1ccc(O)c(O)c1)c1nc(-c2ccccc2)cc(-c2ccccc2)n1 | inconclusive: 43.7%
65 | O=C1C2CC=C(Cl)CC2C(=O)N1CN(Cc1ccco1)CN1C(=O)C2CC=C(Cl)CC2C1=O (stereo unspecified) | inconclusive: 47%
66 | CC(C)Oc1ccc(CCc2n[nH]c(=S)n2Cc2ccccc2)cc1 | inconclusive: 50%

Numbers 44–63 from above:
Row | Structure (SMILES) | inhibition
44 | Cc1c(C(=O)O)oc2ccc(S(=O)(=O)NCc3ccccc3)cc12 | inconclusive: 35.3%
45 | O=S(Cc1ccccc1)CC(O)(c1ccccc1)c1ccccc1 (stereo unspecified) | inconclusive: 44.2%
46 | CCC(=O)Nc1nonc1-c1nc2ccccc2n1N(C(=O)CC)C(=O)CC | inconclusive: 46.6%
47 | C/C(=C/CCC(C)C1CCC2(C)C3CCC4C(C)(C)C(=O)CCC4(C)C3=CCC12C)C(=O)O (stereo unspecified) | inconclusive: 48.2%
48 | CN(CCc1ccccn1)C(=S)Nc1ccc(Cl)c(Cl)c1 | inconclusive: 35.3%
49 | CCCOc1ccc(-c2nn(-c3ccccc3)cc2/C=C2\SC(=S)N(C3CCS(=O)(=O)C3)C2=O)cc1 (stereo unspecified) | inconclusive: 42.5%
50 | COc1cc(C(=O)NC(=S)NCc2ccco2)cc(OC)c1OC | inactive: 5.31%
51 | CN(C(=O)CSc1nc(N)nn1-c1ccccc1)c1ccccc1 | inconclusive: 58.9%
52 | O=C(CSCc1cccc(CSCC(=O)Nc2ccc3ccccc3c2)n1)Nc1ccc2ccccc2c1 | inconclusive: 33.3%
53 | Cn1nnnc1SCC(=O)c1ccc2c(c1)OCCO2 | inconclusive: 34.2%
54 | Cn1c(SCC(=O)NC(C)(C)C)nnc1-c1ccc(C(C)(C)C)cc1 | inconclusive: 35%
55 | C=CCn1c(N)c(C(=O)Nc2ccccc2OC)sc1=S | inconclusive: 33%
56 | Cc1cc(C)c(S(=O)(=O)N2CCCCC2)c(C)c1N(C)S(=O)(=O)c1ccccc1 | inactive: -2.38%
57 | COc1ccc(C(C)=O)cc1COC(=O)C(CO)NS(=O)(=O)c1ccc(Br)cc1 (stereo unspecified) | inconclusive: 42.7%
58 | O=C(N1CCOCC1)N(CCN1CCOCC1)Cc1cccc2ccccc12 | inconclusive: 35.8%
59 | Cc1ccc(CN2CCN(CCC(C)C)C(CCO)C2)s1 (stereo unspecified) | inconclusive: 43.8%
60 | COc1ccc(N2CCN(C(=O)COC(=O)c3c(-c4ccccc4)noc3C)CC2)cc1 | inactive: -5.58%
61 | COc1cc(C2/C(=C(/O)c3ccc(F)cc3)C(=O)C(=O)N2CCCC(=O)O)ccc1O (stereo unspecified) | inconclusive: 37.6%
62 | O=C(CCN1C(=O)c2ccccc2C1=O)CN1CCOCC1 | inactive: -9.57%
63 | Nc1nnc(-c2ccccc2)s1 | inconclusive: 48.7%

Carrying on:

Row | Structure (SMILES) | inhibition
67 | COc1ccccc1-n1cnc2c(c1=O)c1nc3ccccc3nc1n2CCc1ccccc1 | inconclusive: 34.3%
68 | CS(=O)(=O)N(Cc1ccccc1)c1ccc(C(=O)NCC2CCCO2)cc1 (stereo unspecified) | inconclusive: 56.1%
69 | O=C1NC(=S)N/C1=C/c1cccn1-c1ccc([N+](=O)[O-])cc1 | inconclusive: 49.3%
70 | CN(C[C@@H](CC1CCCCC1)N(C[C@H](Cc1ccccc1)N(CCc1ccccc1)N=O)N=O)N=O | inconclusive: 60%
71 | O=C(O)/C=C/c1nc(-c2ccccc2)n2ccccc12 | inconclusive: 38.9%
72 | CC1(C)CC(=O)C2=C(C1)Nc1ncnn1C2c1ccccn1 (stereo unspecified) | inconclusive: 61.6%
73 | O=C(c1nc2ccc(Cl)cn2c1CN1CCC(CO)CC1)N1CCc2ccccc2C1 | inconclusive: 43.5%
74 | CCN(CC)S(=O)(=O)c1ccc2c(c1)c(=O)c(C(=O)N1CCN(c3ccccc3)CC1)cn2C | inconclusive: 33%
75 | Clc1cc2c(c(Cn3cnc4ccccc43)c1)OCOC2 | inconclusive: 61.4%
76 | CCc1nc(SCC(=O)N2CCCC2)c2ccccc2n1 | inactive: 14.3%
77 | COc1ccc(CN2C=C3C(=O)C(C)(OC(=O)C4CCCC4)C(=O)C=C3C=C2c2ccsc2)cc1 (stereo unspecified) | inactive: 31%
78 | O=C(N/N=C/c1c(O)n(-c2ccc(Cl)cn2)c(=O)c2ccccc12)C1CC1 | inconclusive: 46.5%
79 | O=[N+]([O-])c1ccc(Sc2nnnn2-c2ccccc2)c(Cl)c1 | inconclusive: 46%
80 | CCN(CC)c1ccc(SS(=O)(=O)O)cc1 | inconclusive: 37.6%
81 | O=C1C2C(C(=O)N1Cc1ccco1)C1C=CC2C12CC2 (stereo unspecified) | inactive: -1.81%
82 | CN1C(=O)N(C)C2(c3ccccc3)Nn3c(s/c(=C/c4ccco4)c3=O)=NC12c1ccccc1 (stereo unspecified) | inconclusive: 49.3%
83 | Cc1ccc(NC(=O)/C(=C\c2cccnc2)NC(=O)c2ccco2)cc1 | inconclusive: 60.6%
84 | Cc1c(NC(=O)c2cc(-c3ccccc3)on2)c(=O)n(-c2ccccc2)n1C | inactive: -2.53%
85 | Cn1c(=O)[nH]c(=O)c2c1nc(N1CCOCC1)n2CCN1CCOCC1 | inconclusive: 44.4%
86 | NC(=O)C1CC=CCC1C(=O)OCC(Cl)=C(Cl)Cl (stereo unspecified) | inconclusive: 41.1%
